# PubChem BioAssay AID504467 (National Center for Advancing Translational Sciences (NCATS), 2011)
# Hit rate of the full screen: of about 330,000 compounds, about 7,700 (2.3%) were called active. Inconclusive means that the source gave no clear call. Such entries were picked first, then a sample of the others. Calls follow the shape of the dose curve; as a rule, active = well fitted inhibition curve with a large enough effect; inconclusive = small, poorly fitted or top-dose-only effect, or effect the other way; inactive = flat fitted curve, though single readings scatter. Where the call is inconclusive, the potency comes from a doubtful curve fit.
# Test: qHTS screen for small molecules that inhibit ELG1-dependent DNA repair in human embryonic kidney (HEK293T) cells expressing luciferase-tagged ELG1; also: nearly all actives have a fitted effect of over 55% in size
# Conditions: HEK293T ELG1-luciferase reporter, luminescence, 16 h, DNA damage induced by 5-fluorouridine; activity change, negative = inhibition: at 46.1 µM (top of the series)
# How it was run: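 5-Fluorouridine DNA damage + compound/DMSO, 2,000 cells/well, 16 h, 37 °C/5% CO2. ONE-Glo, 30 min RT, luminescence. Readout = decrease in reporter signal.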
# % is scaled to controls: 0 for no effect and ±100 for the full control effect; potency is read from the fitted curve at half-maximal effect.
SMILES,Potency,"activity change, negative = inhibition"
O=S(=O)(Cc1ccc(Cl)cc1)C1CCCCC1O (stereo not drawn),"inconclusive: 20.6 µM [inhibitor, single point]",–
O=C(Nc1ccc(F)cc1)c1ccc(S(=O)(=O)N2CCOCC2)o1,active: 16.4 µM,–
COC(=O)CNc1nc(-c2cccnc2)nc2ccccc12,–,inactive: -11.2%
CCCCn1c(N)c(N(CC(C)C)C(=O)CCC2CCCCC2)c(=O)[nH]c1=O,–,inactive: -19.4%
COCCCNC(=O)C[C@H]1C[C@H](C(=O)N(C(C)C)C(C)C)[C@@]2(C)c3[nH]c4cc(CCC(=O)N(C)C)ccc4c3CCN2C1=O,"inconclusive: 20.6 µM [activator, single point]",–
COc1ccc(N2CC(C(=O)Nc3ccncc3)CC2=O)cc1 (stereo not drawn),–,inactive: 20.1%
CCOc1ccc2nc(N3CCCC(C(=O)N4CCN(CC)CC4)C3)sc2c1 (stereo not drawn),"inconclusive: 20.6 µM [activator, partial curve]",–
Brc1ccc(Nc2c3c(nc4ncnn24)CCC3)cc1,"inconclusive: 14.6 µM [inhibitor, partial curve]",–
N#Cc1ccccc1NC(=O)COC(=O)CSc1nc2ccccc2o1,"inconclusive: 6.51 µM [activator, full curve, poor fit]",–
COc1ccc(-c2nc(CN3CCCCC3c3nccn3C)c(C)o2)c(C)c1C (stereo not drawn),"inconclusive: 23.1 µM [inhibitor, partial curve, poor fit]",–
COC(=O)Cc1c(C)c2ccc(O)c(CNCc3ccc(OC)c(OC)c3)c2oc1=O,–,inactive: -5.93%
Cn1c(=O)c2sccc2n2c(CCCC(=O)NCc3cccnc3)nnc12,"inconclusive: 18.3 µM [activator, partial curve, poor fit]",–
Cc1c(C(=O)Nc2nc3ccccc3[nH]2)oc2ccccc12,"inconclusive: 2.06 µM [activator, partial curve]",–
N#Cc1ccc(Cl)cc1NC(=O)COC(=O)[C@H](CCC(N)=O)NC(=O)c1ccc(F)cc1,–,inactive: 13.9%
CCN(CC)S(=O)(=O)c1cccc(NC(=O)CNc2cccc(S(=O)(=O)N3CCOCC3)c2)c1,"inconclusive: 29.1 µM [inhibitor, single point]",–
O=C(Nc1ccc(F)cc1)c1ccc2c(=O)n(CC3CCCO3)c(=S)[nH]c2c1 (stereo not drawn),active: 4.11 µM,–
C=CCn1c(=O)c(C(=O)Nc2ccccc2O)c(O)c2ccccc21,"inconclusive: 11.2 µM [activator, partial curve, poor fit]",–
COc1cc(/C=N/NC(=O)c2[nH]nc3c2CCc2ccccc2-3)ccc1O,"inconclusive: 29.1 µM [inhibitor, single point]",–
O=C(CSc1nnc(NC(=O)c2ccccc2)s1)NCc1ccco1,"inconclusive: 5.17 µM [activator, partial curve]",–
Cc1nn(C)c(C(=O)NNC(=S)Nc2ccc(F)cc2)c1[N+](=O)[O-],–,inactive: 7.05%
CCOC(=O)C1=C(COC(=O)COc2ccccc2C(C)C)NC(=O)NC1C (stereo not drawn),–,inactive: 4.3%
CCOC(=O)c1c(C)oc2c1cc(O)c1ccccc12,"inconclusive: 23.1 µM [activator, partial curve]",–

SMILES,Potency,"activity change, negative = inhibition"
COc1cc(NC(=O)CN2CCN(S(=O)(=O)/C=C/c3ccccc3)CC2)cc(OC)c1OC,"inconclusive: 35.5 µM [inhibitor, single point]",–
CN(Cc1ccccc1)C(=S)NC(=O)C1CCCCC1,"inconclusive: 18.4 µM [activator, single point]",–
COc1ccccc1S(=O)(=O)Cc1ccc(C(=O)N2CCN(c3ccccc3)CC2)o1,active: 20.6 µM,–
CCOc1ccc(CCNC(=O)COc2cc(=O)n(C)c3ccccc23)cc1OCC,"inconclusive: 29.1 µM [activator, single point]",–
[O-][n+]1ccc(C(O)c2ccccc2)cc1 (stereo not drawn),–,inactive: 2.45%
N#Cc1cc2c(nc1SCC(=O)Nc1nccs1)CCCCC2,"inconclusive: 1.12 µM [activator, full curve, poor fit]",–
Cc1cc(C)c(NC(=O)COC(=O)c2ccncc2)c(C)c1,"inconclusive: 29.1 µM [inhibitor, single point]",–
CC(C)C(C)(C#N)NC(=O)CSc1ncnc2sc(-c3ccccc3)cc12 (stereo not drawn),"inconclusive: 23.1 µM [inhibitor, single point]",–
CN(C)/C=C/C(=O)Oc1ccc(Cl)cc1Cl,"inconclusive: 20.6 µM [activator, partial curve, poor fit]",–
CCCCCC(O)(c1ccc(OCC)cc1)C(CN1CCOCC1)c1ccccc1 (stereo not drawn),"inconclusive: 18.3 µM [inhibitor, partial curve]",–
CCCC1=C(C(=O)OCC)C(c2ccc(OC)c(CSc3ccccn3)c2)C(C#N)=C(N)O1 (stereo not drawn),"inconclusive: 20.6 µM [inhibitor, single point]",–
CCN(CC)c1ccc(S(=O)(=O)N(CC)CC)cc1NC(=O)c1cccnc1,"inconclusive: 25.9 µM [inhibitor, partial curve, poor fit]",–
NC(=O)NC(=O)COC(=O)CN1C(=O)C2CCCCC2C1=O (stereo not drawn),"inconclusive: 29.1 µM [activator, partial curve, poor fit]",–
CCn1c(C)cc2c(c1=O)C(c1ccccc1)C(C(=O)OC)=C(N)O2 (stereo not drawn),"inconclusive: 18.4 µM [activator, partial curve, poor fit]",–
CN(CC#CC1(O)c2ccccc2-c2ccccc21)Cc1ccccc1,–,inactive: 0.0641%
CC(C)CC(=O)N1CCN(C(=O)c2ccc(-c3ccccc3)cc2)CC1,"inconclusive: 10 µM [inhibitor, partial curve, poor fit]",–
COc1cc2c(cc1OC)C(C)N(C(=O)c1ccc(C)o1)CC2 (stereo not drawn),–,inactive: 6.82%
Cc1cnc(NC(=O)COc2ccccc2)s1,"inconclusive: 4.11 µM [activator, full curve]",–
CN(C)CCCN(C(=O)c1ccc(S(=O)(=O)N2CCc3ccccc3C2)cc1)c1nc2ccc(F)cc2s1,"inconclusive: 29.1 µM [inhibitor, single point]",–
CCCn1nc(C(=O)N2CCCc3ccccc32)c2ccccc2c1=O,"inconclusive: 18.3 µM [inhibitor, partial curve]",–
CC1(c2ccccc2)NC(=O)N(CC(=O)Nc2cccc(/C=C/c3ccccn3)c2)C1=O (stereo not drawn),"inconclusive: 29.1 µM [inhibitor, single point]",–

# Entries of single compounds, looked up by structure. Order of values: Potency | activity change, negative = inhibition
# Cc1nn(C)c(C(=O)NNC(=S)Nc2ccc(F)cc2)c1[N+](=O)[O-] is entered as – | inactive: 7.05%
# N#Cc1ccc(Cl)cc1NC(=O)COC(=O)[C@H](CCC(N)=O)NC(=O)c1ccc(F)cc1 is entered as – | inactive: 13.9%
# COc1cc2c(cc1OC)C(C)N(C(=O)c1ccc(C)o1)CC2 (stereo not drawn) is entered as – | inactive: 6.82%
